Source: patent publication US20170369592A1, “NOVEL ANTI-FIBROBLAST ACTIVATION PROTEIN (FAP) ANTIBODIES AND USES DERIVED THEREOF” (Mabimmune Diagnostics AG, priority 2015, published 2017)
Results are given in words; binding and its absence hold for the method and conditions named. Some results given as binding are weak or reduced against the parent protein; the word gives no strength.

The chains behind the UniProt entries cited, without tags or fusion partners. Where a name states a change or a piece, a line headed by the entry shows the natural chain unless it says otherwise. Residues count along the entry.
UniProt Q12884: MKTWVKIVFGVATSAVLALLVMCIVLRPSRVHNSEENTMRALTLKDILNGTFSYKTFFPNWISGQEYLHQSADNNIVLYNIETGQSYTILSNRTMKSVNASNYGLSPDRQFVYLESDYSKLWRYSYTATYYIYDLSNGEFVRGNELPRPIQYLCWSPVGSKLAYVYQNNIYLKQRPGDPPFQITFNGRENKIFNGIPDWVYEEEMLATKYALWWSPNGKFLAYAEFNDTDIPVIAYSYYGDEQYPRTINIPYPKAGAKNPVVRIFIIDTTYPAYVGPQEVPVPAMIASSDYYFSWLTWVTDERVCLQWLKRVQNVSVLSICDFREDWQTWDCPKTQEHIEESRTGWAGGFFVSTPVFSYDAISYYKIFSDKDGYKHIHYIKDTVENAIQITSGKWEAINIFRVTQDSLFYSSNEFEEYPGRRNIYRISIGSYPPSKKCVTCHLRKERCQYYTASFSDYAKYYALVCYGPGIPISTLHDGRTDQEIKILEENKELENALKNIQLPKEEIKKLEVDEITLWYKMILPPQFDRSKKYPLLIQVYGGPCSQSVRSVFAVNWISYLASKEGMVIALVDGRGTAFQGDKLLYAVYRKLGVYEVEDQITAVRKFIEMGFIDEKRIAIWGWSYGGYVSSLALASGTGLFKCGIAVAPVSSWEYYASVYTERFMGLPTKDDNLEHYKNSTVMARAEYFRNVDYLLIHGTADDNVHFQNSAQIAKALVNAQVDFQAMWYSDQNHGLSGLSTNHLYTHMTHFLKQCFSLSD
recombinant human Fibroblast Activation Protein (FAP): residues 26-760 of Q12884

What was measured:
[1] = biological target: T1, FAP peptide 132 (525-…-539) (human); assay: pepscan image (FIG. 4A), antibody at 1 µg/ml
T1 sequence (peptide): PPQFDRSKKYPLLIQ

[2] = biological target: T2, FAP peptide 131 (521-…-535) (human); assay: pepscan image (FIG. 4A), antibody at 1 µg/ml
T2 sequence (peptide): KMILPPQFDRSKKYP

[3] = biological target: recombinant human Fibroblast Activation Protein (FAP) (human) (UniProt Q12884); assay: sandwich ELISA, F19 as capture antibody, HRP-labelled 82C2 as detection antibody (FIG. 17C)
[4] = biological target: transmembrane human FAP on FAP-HEK293 cells (human) (UniProt Q12884); assay: flow cytometry, Cy5-labelled antibody on FAP-HEK293 cells, delta MFI = MFI NI-206.82C2 minus MFI 43A11, PBS at pH 6.8
[5] = biological target: recombinant human Fibroblast Activation Protein (FAP) (human) (UniProt Q12884); assay: direct ELISA (FIG. 2B)
[6] = biological target: recombinant human Fibroblast Activation Protein (FAP) (human) (UniProt Q12884); assay: ELISA, NI-206.82C2 at 20, 4 and 0.8 nM on captured His-tagged FAP (FIG. 7A)
[7] = biological target: transmembrane human FAP on FAP-HEK293 cells (human) (UniProt Q12884); assay: flow cytometry, Cy5-labelled antibody on FAP-HEK293 cells, delta MFI = MFI NI-206.82C2 minus MFI 43A11, PBS at pH 6.4
[8] = biological target: recombinant human Fibroblast Activation Protein (FAP) (human) (UniProt Q12884); assay: sandwich ELISA, F19 coated as capture antibody, rhFAP standard titrated, HRP-labelled 82C2 as detection antibody
[9] = biological target: recombinant human Fibroblast Activation Protein (FAP) (human) (UniProt Q12884); assay: ELISA, tagged rhFAP captured on the plate with an anti-tag antibody, HRP-labelled NI-206.82C2, TMB, OD 450 nm [continued) B]
[10] = biological target: recombinant human Fibroblast Activation Protein (FAP) (human) (UniProt Q12884); assay: capture ELISA, His-tagged rhFAP captured with coated anti-His antibody, detection with HRP goat anti-human antibody
[11] = biological target: T1, FAP peptide 132 (525-…-539) (human); assay: pepscan, 15-mer peptides on a nitrocellulose membrane, antibody at 1 µg/ml
[12] = biological target: T2, FAP peptide 131 (521-…-535) (human); assay: as above
[13] = biological target: recombinant human Fibroblast Activation Protein (FAP) (human) (UniProt Q12884); assay: sandwich ELISA, F19 coated as capture antibody, rhFAP titrated, HRP-labelled 82C2 as detection antibody
[14] = biological target: transmembrane human FAP on FAP-HEK293 cells (human) (UniProt Q12884); assay: flow cytometry, Cy5 labelled antibody on FAP-HEK293 cells at pH 7.4, 6.8 and 6.4
[15] = biological target: T3, FAP peptide fragment 521-…-539 (human); assay: truncation peptides spotted on a nitrocellulose membrane
T3 sequence (peptide): KMILPPQFDRSKKYPLLIQ

[16] = biological target: T4, truncation peptide spot 24 (full length peptide of spot 21 shortened by 3 amino acids from the C-terminus); assay: as above
T4 sequence (peptide, by the resolver, Synthetic peptide spotted on a nitrocellulose membrane.): KMILPPQFDRSKKYPL

[17] = biological target: T5, truncation peptide spot 23 (full length peptide of spot 21 shortened by 2 amino acids from the C-terminus); assay: as above
T5 sequence (peptide, by the resolver, Synthetic peptide spotted on a nitrocellulose membrane.): KMILPPQFDRSKKYPLL

[18] = biological target: recombinant human Fibroblast Activation Protein (FAP) (human) (UniProt Q12884); assay: ELISA, enzyme captured via its tag, HRP-labelled NI-206.82C2 (FIG. 7B)
[19] = biological target: transmembrane human FAP on FAP-HEK293 cells (human) (UniProt Q12884); assay: flow cytometry, Cy5 labelled antibody on FAP-HEK293 cells, ΔMFI = MFI 82C2 minus MFI 43A11
[20] = biological target: recombinant human Fibroblast Activation Protein (FAP) (human) (UniProt Q12884); assay: capture ELISA (FIG. 2A)
[21] = biological target: transmembrane human FAP on FAP-HEK293 cells (human) (UniProt Q12884); assay: flow cytometry, Cy5-labelled antibody on FAP-HEK293 cells, delta MFI = MFI NI-206.82C2 minus MFI 43A11, PBS at pH 7.4
[22] = biological target: recombinant human Fibroblast Activation Protein (FAP) (human) (UniProt Q12884); assay: ELISA, capture and direct formats

Measured: binding

B1: NI-206.82C2 (antibody, V domains shown)
VH: QVQLQQSGPGLVKPSQTLSLTCAISGDSVSSNSVTWNWIRQSPSRGLEWLGRTYYRSKWYNDYAVSVKGRITINPDTSKNQFYLQLKSVTPEDAAVYYCARDSSILYGDYWGQGTLVTVSS
VL: QAVLTQPSSLSASPGASASLTCTLPSGINVGTYRIFWFQQKPGSPPQYLLSYKSDSDNHQGSGVPSRFSGSKDASANAGILLISGLQSEDEADYYCMIWHSSAWVFGGGTKLTVL
notes: Labelled with HRP or Cy5 in some assays; also called HRP-labelled 82C2
binds: all assays above
